{"source": "PubChem BioAssay AID1259424 | University of Nebraska Medical Center, 2018", "purpose": "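Seek colon cancer survival genes behaving like KSR1, using a six-gene signature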 (primary screen)", "system": "human HCT116 colon cancer cells", "reagent": "siRNA pool against human genes, 50 nM", "read-out": "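Six signature mRNAs by branched-DNA multiplex assay, scaled to two housekeeping genes and non-targeting median, log2; matched to mean KSR1 knockdown profile by Pearson correlation and euclidean distance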", "reading the numbers": "mean correlation with KSR1 profile: higher = expression change more like KSR1 knockdown; mean distance from KSR1 profile: higher = expression change less like KSR1 knockdown", "note": "This is an unselected part of about 14,000 reagents tested. 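Higher correlation or smaller distance means closer resemblance to KSR1 loss; control wells, including KSR1 knockdowns, recur on many plates.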 The numbers tell different reagents against one gene apart. Not all columns of the deposit are shown. The record does not give: the time to read-out."}
{"Gene": "FOXC2", "reagent no.": 1, "mean correlation with KSR1 profile": 0.695, "mean distance from KSR1 profile": 1.74}
{"Gene": "IDH3B", "reagent no.": 1, "mean correlation with KSR1 profile": -0.567, "mean distance from KSR1 profile": 2.46}
{"Gene": "SLC1A6", "reagent no.": 1, "mean correlation with KSR1 profile": -0.34, "mean distance from KSR1 profile": 1.55}
{"Gene": "ITGA5", "reagent no.": 1, "mean correlation with KSR1 profile": -0.0879, "mean distance from KSR1 profile": 1.47}
{"Gene": "ATL1", "reagent no.": 1, "mean correlation with KSR1 profile": 0.34, "mean distance from KSR1 profile": 2.6}
{"Gene": "SLC22A16", "reagent no.": 1, "mean correlation with KSR1 profile": 0.799, "mean distance from KSR1 profile": 1.68}
{"Gene": "SRRT", "reagent no.": 1, "mean correlation with KSR1 profile": 0.134, "mean distance from KSR1 profile": 3.73}
{"Gene": "SMPX", "reagent no.": 1, "mean correlation with KSR1 profile": 0.109, "mean distance from KSR1 profile": 1.78}
{"Gene": "RCVRN", "reagent no.": 1, "mean correlation with KSR1 profile": 0.193, "mean distance from KSR1 profile": 2.11}
{"Gene": "NDRG1", "reagent no.": 1, "mean correlation with KSR1 profile": -0.481, "mean distance from KSR1 profile": 1.79}
{"Gene": "REC8", "reagent no.": 1, "mean correlation with KSR1 profile": -0.553, "mean distance from KSR1 profile": 2.12}
{"Gene": "NPR3", "reagent no.": 1, "mean correlation with KSR1 profile": 0.573, "mean distance from KSR1 profile": 2.74}
{"Gene": "NPR3", "reagent no.": 2, "mean correlation with KSR1 profile": 0.705, "mean distance from KSR1 profile": 1.04}
{"Gene": "CPEB4", "reagent no.": 1, "mean correlation with KSR1 profile": 0.0548, "mean distance from KSR1 profile": 2.17}
{"Gene": "MEPE", "reagent no.": 1, "mean correlation with KSR1 profile": -0.128, "mean distance from KSR1 profile": 2.21}
{"Gene": "NXPH3", "reagent no.": 1, "mean correlation with KSR1 profile": -0.259, "mean distance from KSR1 profile": 2.65}
{"Gene": "ITGB4", "reagent no.": 1, "mean correlation with KSR1 profile": -0.146, "mean distance from KSR1 profile": 2.24}
{"Gene": "CFAP92", "reagent no.": 1, "mean correlation with KSR1 profile": 0.182, "mean distance from KSR1 profile": 1.45}
{"Gene": "SPSB2", "reagent no.": 1, "mean correlation with KSR1 profile": 0.094, "mean distance from KSR1 profile": 2.86}
